Measured values taken from ChEMBL document CHEMBL2034870, “Activity landscape modeling of PPAR ligands with dual-activity difference maps” (Bioorg Med Chem, 2012).
pIC50: −log10 of the molar value.

Columns and labels:
[1] = target: T1, Peroxisome proliferator-activated receptor alpha (Homo sapiens, UniProt Q07869); type: functional
T1 sequence (Q07869 whole entry): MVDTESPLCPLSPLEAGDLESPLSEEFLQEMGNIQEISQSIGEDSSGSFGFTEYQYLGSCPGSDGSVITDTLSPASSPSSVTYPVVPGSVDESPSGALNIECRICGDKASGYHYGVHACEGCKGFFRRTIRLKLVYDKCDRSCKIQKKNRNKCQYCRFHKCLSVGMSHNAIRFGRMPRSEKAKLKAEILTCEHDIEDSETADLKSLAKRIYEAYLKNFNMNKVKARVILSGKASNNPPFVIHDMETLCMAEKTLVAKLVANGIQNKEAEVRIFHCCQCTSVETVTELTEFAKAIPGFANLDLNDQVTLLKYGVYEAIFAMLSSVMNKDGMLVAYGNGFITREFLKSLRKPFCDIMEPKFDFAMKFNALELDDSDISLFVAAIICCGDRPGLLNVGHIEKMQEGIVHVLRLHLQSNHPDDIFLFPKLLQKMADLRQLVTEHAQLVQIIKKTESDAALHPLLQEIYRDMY

[2] = target: T2, Peroxisome proliferator-activated receptor delta (Homo sapiens, UniProt Q03181); type: functional
T2 sequence (Q03181 whole entry): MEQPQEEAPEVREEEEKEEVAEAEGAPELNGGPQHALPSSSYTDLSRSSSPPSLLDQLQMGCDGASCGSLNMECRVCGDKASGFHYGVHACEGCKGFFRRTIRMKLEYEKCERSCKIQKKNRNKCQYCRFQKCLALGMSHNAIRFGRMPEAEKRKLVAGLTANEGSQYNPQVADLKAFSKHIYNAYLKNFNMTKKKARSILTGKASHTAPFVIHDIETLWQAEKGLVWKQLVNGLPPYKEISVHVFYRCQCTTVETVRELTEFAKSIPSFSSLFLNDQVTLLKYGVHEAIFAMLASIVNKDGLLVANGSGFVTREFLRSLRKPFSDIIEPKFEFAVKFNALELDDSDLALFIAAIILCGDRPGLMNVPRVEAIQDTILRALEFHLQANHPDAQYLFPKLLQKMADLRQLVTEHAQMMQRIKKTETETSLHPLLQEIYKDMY

CCc1ccc(O[C@H](C)CCOc2ccc(OC(C)(C)C(=O)O)cc2)c(C(=O)c2ccccc2)c1
pIC50 [1]: 5.88 | pIC50 [2]: 8.30
